# Test results from PMC12670160, “A drug-repurposing screen of FDA- and EMA-approved drugs identifies two NF-κB inhibitors active against eumycetoma” (Journal of Antimicrobial Chemotherapy, 2025).
# Structures can show the parent of a compound that is named as a salt. Screen size: about 5,300 compounds; about 130 (2.5%) showed an effect of 50% or more. The list shows a part of the results.
# Tested on: M. mycetomatis strain mm55
# Details: primary screen, metabolic activity vs growth control; 96 h, 2 µM; inhibitor
row,SMILES,% viability
1,"COC(=O)c1ccccc1-c1c2ccc(N)cc2[o+]c2cc(N)ccc12 [ONC0005366, rhodamine123]",107.2%
2,"COc1ccc(Nc2ccn(-c3ccccc3)n2)cc1 [ONC0000324, n4methoxyphenyl1phenyl1hpyrazol3amine]",100.7%
3,"CO/N=C(\C(=O)N[C@@H]1C(=O)N2C(C(=O)O)=C(COC(N)=O)CS[C@H]12)c1ccco1 [ONC0000670, cefuroxime sodium]",116%
4,"CN1CCN(CCOc2cc(OC3CCOCC3)c3c(Nc4c(Cl)ccc5c4OCO5)ncnc3c2)CC1 [ONC0004950, saracatinib azd0530]",85.52%
5,"CCOCC(O)COc1ccc(NC(=O)CC[S+](C)C)cc1 (stereo not drawn) [ONC0001402, suplatast tosylate]",102.4%
6,"COc1cc(/C=C(\C#N)C(N)=O)cc(CSc2nc3ccccc3s2)c1O [ONC0002729, tyrphostinag825]",75.66%
7,"CC(C)c1nnc(-c2ccc(-c3ccccc3)nc2)n1-c1cccc2nonc12 [ONC0004268, asp2535]",61.85%
8,"O=C(O)c1ccc(CN2CCC(CN[C@@H]3C[C@H]3c3ccccc3)CC2)cc1 [ONC0001137, gsk2879552]",48.21%
9,"CC(=O)Nc1ncc([N+](=O)[O-])s1 [ONC0004009, nithiamide]",74.22%
10,"FC(F)(F)c1ccc(N2CCNCC2)nc1Cl [ONC0001937, org12962]",70.23%
11,"COc1cc(C#N)ccc1S(=O)(=O)Nc1ccc2c(c1)cc(C)c(=O)n2C [ONC0003652, ni57]",62.58%
12,"Cc1cc(CC(=O)O)n(C)c1C(=O)c1ccc(Cl)cc1 [ONC0003404, zomepirac sodium]",97.2%
13,"O=C(O)C1=CCCNC1 [ONC0003071, guvacine]",130.1%
14,"CC(=O)Nc1cccc(Nc2ncnc(N3CCC(OCc4ccc(OC(F)(F)F)cc4)CC3)n2)c1C [ONC0004487, tcn1752]",159.7%
15,"CCC1(c2ccc(N)cc2)CCC(=O)NC1=O (stereo not drawn) [ONC0003189, aminoglutethimide]",107.9%
16,"C[C@H](CCC(=O)O)[C@H]1CC[C@H]2[C@@H]3CC[C@@H]4C[C@H](O)CC[C@]4(C)[C@H]3C[C@H](O)[C@]12C [ONC0001972, deoxycholic acid]",111.6%
17,"Nc1nccc2c1ncn2[C@@H]1O[C@H](CO)C(O)C1O (stereo partly drawn) [ONC0001988, 3deazaadenosine]",139.4%
18,"Nc1ccc2cc3ccc(N)cc3nc2c1 [ONC0004263, proflavine hemisulfate]",83.54%

# Single values from the list:
# Entry for CC(=O)Nc1ncc([N+](=O)[O-])s1 [ONC0004009, nithiamide] under % viability: 74.22%
# Entry for COc1cc(C#N)ccc1S(=O)(=O)Nc1ccc2c(c1)cc(C)c(=O)n2C [ONC0003652, ni57] under % viability: 62.58%
